Assay results as given in patent US4868208A, “Antifungal agent and method” (Merck & Co., Inc., priority 1988, dated 1989).
At least one structure is not confirmed: it was looked up by name or label, or the drawing left a doubt.

System: Cryptococcus neoformans
Assay: Agar dilution assay (MIC) against an expanded panel of 84 Cryptococcus neoformans strains
Type: cell-based
Conditions: 84 Cryptococcus neoformans isolates; yeast nitrogen base dextrose agar; 0.008 to 16.0 μg/ml
Experimental: Such activity may be illustrated with test results against Cryptococcus neoformans employing yeast nitrogen base dextrose agar medium. In carrying out the assay, Compound Ia' was solubilized in 10 percent dimethyl sulfoxide (DMSO) supplemented with one drop of Tween 20. Twofold dilutions were made with sterile distilled water/10 percent DMSO to obtain final drug concentrations in the agar dilution assay plates ranging from 0.008 to 16.0 μg/ml against an expanded panel of 84 Cryptococcus neoformans strains.
The minimum inhibitory concentration against the expanded panel of 84 Cryptococcus neoformans isolates may be summarized as follows: […]

## COC(=O)C(C)CNC(=O)C(Cc1ccc(OC)c(Cl)c1)NC(=O)C=CCC(OC(=O)C(O)CC(C)C)C(C)C1OC1c1ccccc1 (stereo not shown) [Compound Ia', 5-[[2-[[2-(methoxycarbonyl)propyl]amino]-1-[(3-chloro-4-methoxyphenyl)methyl]-2-oxoethyl]amino]-5-oxo-1-[1-(3-phenyloxiranyl)ethyl]-3-pentenyl 2-hydroxy-4-methylpentanoate]
  MIC Range: 4.0->16.0
